Data from PubChem BioAssay.
Inconclusive means that the source gave no clear call. Such entries were picked first, then a sample of the others. Potencies of inconclusive entries are doubtful fits and often do not repeat. The source made the active and inactive calls. Unless noted, the limit is not given here; nearly all actives have AC50 up to about 26 µM.

Test: growth inhibition of DIPG glioma cells, dose response, cell-based, SU-DIPG-XIII, MIPE5.0, CellTiter-Glo, qHTS (AID 1347064; cut-off not given, nearly all actives have AC50 up to about 23 µM;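 as to AC50: cells exposed to compound for 48 hours before the viability read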)
Details: SU-DIPG-XIII viability, CellTiter-Glo ATP luminescence

| Structure (SMILES) | AC50 | outcome |
| --- | --- | --- |
| Cc1ccc(-c2nn(C(C)(C)CNC(=O)c3ccncc3)c3ncnc(N)c23)cc1 | inconclusive: 0.105 µM [cytotoxic] | – |
| NC(=O)c1cccc2c(NC(CN3CCC3)c3ccc(Cl)c(C(F)(F)F)c3)ncnc12 (stereo not drawn) | active: 3.72 µM | – |
| O=c1c(-n2ccnn2)c[nH]n1-c1cc(N2CCOCC2)ncn1 | inconclusive: 37.2 µM [cytotoxic] | – |
| c1cc(Nc2cc(C3CC3)[nH]n2)nc(Nc2ccc3nc[nH]c3c2)n1 | active: 0.468 µM | – |
| N#Cc1ccc(Cn2cncc2CN2CCN(c3cccc(Cl)c3)C(=O)C2)cc1 | inconclusive: 16.6 µM [cytotoxic] | – |
| Nc1nccn2c(C3CCC(C(=O)O)CC3)nc(-c3cc4cccc(Cl)c4[nH]3)c12 (stereo not drawn) | inconclusive: 3.32 µM [cytotoxic] | – |
| CNCc1ccc(-c2cc(-c3nc(-c4ccc(S(=O)(=O)C(C)C)cc4)cnc3N)on2)cc1 | inconclusive: 7.42 µM [cytotoxic] | – |
| O=C(NNc1ccccc1)c1ccncc1 | – | inactive |
| Cc1ccc(S(=O)(=O)Cc2nc(-c3ccc(C(=O)NCc4cccnc4)cc3)oc2C)cc1 | active: 0.0166 µM | – |
| C[C@H](NC(=O)c1c(N)nn2cccnc12)c1cc2cccc(C#Cc3cnn(C)c3)c2c(=O)n1-c1ccccc1 | inconclusive: 5.12 µM [cytotoxic] | – |
| CN1CCN(C(=O)c2ccc3cc(CCNc4ncnc5ccc(C#N)cc45)ccc3c2)CC1 | inconclusive: 20.9 µM [cytotoxic] | – |
| Cn1nccc1Nc1nccc(-c2cc3c(s2)C(C)(C)N(CCN2CCOCC2)C3=O)n1 | inconclusive: 3.72 µM [cytotoxic] | – |
| CC(C)[C@@H](CS(=O)(=O)C(C)C)N1C(=O)[C@@](C)(CC(=O)O)C[C@H](c2cccc(Cl)c2)[C@H]1c1ccc(Cl)cc1 | inconclusive: 0.0148 µM [cytotoxic] | – |

Test: JHH-DIPG-1 glioma cell viability, MIPE5.0 library, CellTiter-Glo luminescence, qHTS (AID 1347067);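 also: cells exposed to compound for 48 hours before readout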
Details: JHH-DIPG-1 glioma viability, CellTiter-Glo ATP luminescence

| Structure (SMILES) | AC50 | outcome |
| --- | --- | --- |
| Cc1c(NC(=O)c2cc3c(s2)CCCC3)cccc1-c1cn(C)c(=O)c(Nc2ccc(C3C(=O)N(C)CCN3C)cc2)n1 (stereo not drawn) | active: 18.6 µM | – |
| COc1ccc(Cl)c(Nc2nc3ccccc3nc2NS(=O)(=O)c2cccc(NC(=O)C(C)(C)N)c2)c1 | inconclusive: 16.6 µM [cytotoxic] | – |
| CCC(CC)C(c1ccc(Nc2nc3ccccc3s2)cc1)n1cncn1 (stereo not drawn) | inconclusive: 20.9 µM [cytotoxic] | – |
| Cc1cc(C(=O)Nc2cc(Oc3ccc4nc(NC(=O)C5CC5)cn4n3)ccc2C)n(C)n1 | inconclusive: 13.2 µM [cytotoxic] | – |
| CN(C)CCCOc1ccc(-c2ccc3ncc4c(c3c2)n(C2CCOCC2)c(=O)n4C)cn1 | – | inactive |
| CCS(=O)(=O)Nc1ccc(Oc2ccc(F)cc2F)c(-c2cn(C)c(=O)c3[nH]ccc23)c1 | active: 4.68 µM | – |
| CC(=NNC(=O)c1cccc(S(=O)(=O)N2CCOCC2)c1)c1cc(Cl)ccc1O | inconclusive: 5.25 µM [cytotoxic] | – |
| C[C@@H]1C[C@H](N)C[C@H](c2ccncc2NC(=O)c2ccc(F)c(-c3c(F)cccc3F)n2)C1 | inconclusive: 33.2 µM [cytotoxic] | – |
| CC(C)NC(=O)COc1cccc(-c2nc(Nc3ccc4[nH]ncc4c3)c3ccccc3n2)c1 | inconclusive: 5.9 µM [cytotoxic] | – |
| O=C(c1ccc(Nc2nc(C3CC3)cn3c(-c4cn[nH]c4)cnc23)c(F)c1)N1CCOCC1 | active: 2.63 µM | – |
| C=CC(=O)N[C@H]1CN(c2nc(Nc3cn(C)nc3OC)c3ncn(C)c3n2)C[C@@H]1F | inconclusive: 16.6 µM [cytotoxic] | – |
| CCN(CC)C(=O)Cc1csc(NS(=O)(=O)c2cccc(Cl)c2C)n1 | inconclusive: 2.35 µM [cytotoxic] | – |
| C[C@H]1COCCN1c1cc(C2(S(=O)(=O)C3CC3)CC2)nc(-c2ccc(NC(=S)NCCO)cc2)n1 | inconclusive: 0.0833 µM [cytotoxic] | – |
| COc1ccc2[nH]c(C(=O)N3CCC(CC(C)(C)O)CC3)cc2c1 | – | inactive |
| CN1CCN(C2CCC(n3cc(-c4ccc(Oc5ccccc5)cc4)c4c(N)ncnc43)CC2)CC1 (stereo not drawn) | active: 7.42 µM | – |
| Cc1cc(O[C@@H](CCC(F)(F)F)c2ccc(C(=O)NCCC(=O)O)cc2)cc(C)c1-c1ccc(C(C)(C)C)cc1 | inconclusive: 8.33 µM [cytotoxic] | – |
| COc1cc(C(=O)O)ccc1NC(=O)[C@@H]1N[C@@H](CC(C)(C)C)[C@](C#N)(c2ccc(Cl)cc2F)[C@H]1c1cccc(Cl)c1F | active: 11.8 µM | – |
| COc1ncc(Nc2ncc([C@H](C)N3CCN(S(C)(=O)=O)CC3)cc2-c2nc(C)nc(N)n2)cc1F | active: 1.18 µM | – |
| NC(=O)c1cnc2[nH]ccc2c1NC1C2CC3C[C@H]1CC(O)(C3)C2 (stereo partly drawn) | inconclusive: 14.8 µM [cytotoxic] | – |
| NCCCC[C@H](NC(=O)[C@@H](NC(=O)[C@H](Cc1c[nH]c2ccccc12)NC(=O)[C@H](CCCCN)NC(=O)[C@H](CCCCN)NC(=O)[C@H](Cc1c[nH]c2ccccc12)NC(=O)[C@H](Cc1c[nH]c2ccccc12)NC(=O)[C@H](CCCCN)NC(=O)[C@@H](N)CCCCN)C(c1ccccc1)c1ccccc1)C(N)=O | inconclusive: 33.2 µM [cytotoxic] | – |

| Structure (SMILES) | AC50 | outcome |
| --- | --- | --- |
| CN(C)CCNC(=O)NC[C@H]1CC[C@@H]2[C@H](O1)c1cc(C(F)(F)F)ccc1N[C@H]2c1ccccc1 | inconclusive: 0.468 µM [cytotoxic] | – |
| Cc1ccc(C(=O)Nc2ccc(Oc3cc4cnn(C)c4cc3-c3cn[nH]c3)c(F)c2)c(=O)n1-c1ccc(F)cc1 | inconclusive: 8.33 µM [cytotoxic] | – |
| O=C(c1c(F)ccc(NS(=O)(=O)N2CC[C@@H](F)C2)c1F)c1c[nH]c2ncc(-c3cnc(C4CC4)nc3)cc12 | inconclusive: 14.8 µM [cytotoxic] | – |
| Cc1ccc(Nc2nnc(Cc3ccncc3)c3ccccc23)cc1Br | active: 18.6 µM | – |
| Nc1nc(OC(c2ccc(-c3cccc(F)c3)cc2)C(F)(F)F)cc(-c2ccc(C[C@@H](N)C(=O)O)cc2)n1 (stereo partly drawn) | inconclusive: 26.3 µM [cytotoxic] | – |
| Cc1ccc(Nc2ncc3c(n2)N(C)C(=O)N(c2cc(NC(=O)c4cccc(C(F)(F)F)c4)ccc2C)C3)cn1 | inconclusive: 0.0525 µM [cytotoxic] | – |
| CC(C)[C@](O)(c1ccc2cc(OC(F)F)c(OC(F)F)cc2c1)c1cn[nH]n1 | – | inactive |
| Cc1ccc(-c2nn(C(C)(C)CNC(=O)c3ccncc3)c3ncnc(N)c23)cc1 | active: 13.2 µM | – |
| NC(=O)c1cccc2c(NC(CN3CCC3)c3ccc(Cl)c(C(F)(F)F)c3)ncnc12 (stereo not drawn) | active: 11.8 µM | – |
| O=c1c(-n2ccnn2)c[nH]n1-c1cc(N2CCOCC2)ncn1 | – | inactive |
| c1cc(Nc2cc(C3CC3)[nH]n2)nc(Nc2ccc3nc[nH]c3c2)n1 | active: 0.742 µM | – |
| N#Cc1ccc(Cn2cncc2CN2CCN(c3cccc(Cl)c3)C(=O)C2)cc1 | inconclusive: 6.61 µM [cytotoxic] | – |
| Nc1nccn2c(C3CCC(C(=O)O)CC3)nc(-c3cc4cccc(Cl)c4[nH]3)c12 (stereo not drawn) | inconclusive: 8.33 µM [cytotoxic] | – |
| CNCc1ccc(-c2cc(-c3nc(-c4ccc(S(=O)(=O)C(C)C)cc4)cnc3N)on2)cc1 | inconclusive: 10.5 µM [cytotoxic] | – |
| O=C(NNc1ccccc1)c1ccncc1 | inconclusive: 20.9 µM [cytotoxic] | – |
| Cc1ccc(S(=O)(=O)Cc2nc(-c3ccc(C(=O)NCc4cccnc4)cc3)oc2C)cc1 | active: 0.0209 µM | – |
| C[C@H](NC(=O)c1c(N)nn2cccnc12)c1cc2cccc(C#Cc3cnn(C)c3)c2c(=O)n1-c1ccccc1 | inconclusive: 5.12 µM [cytotoxic] | – |
| CN1CCN(C(=O)c2ccc3cc(CCNc4ncnc5ccc(C#N)cc45)ccc3c2)CC1 | active: 20.9 µM | – |
| Cn1nccc1Nc1nccc(-c2cc3c(s2)C(C)(C)N(CCN2CCOCC2)C3=O)n1 | active: 2.09 µM | – |
| CC(C)[C@@H](CS(=O)(=O)C(C)C)N1C(=O)[C@@](C)(CC(=O)O)C[C@H](c2cccc(Cl)c2)[C@H]1c1ccc(Cl)cc1 | active: 23.5 µM | – |
